Results on two molecules are retold here after PMC11570943.

These are yes or no findings as the source states them, for the method shown. In cells and extracts the contact can be indirect. Some entries that bind do so weakly or less than the wild type. For some assays here: Sequences can lack the tags named with a protein.

In experiment [1] the target is T1, Myc-tagged PPARα (UniProt Q07869).
T1 sequence: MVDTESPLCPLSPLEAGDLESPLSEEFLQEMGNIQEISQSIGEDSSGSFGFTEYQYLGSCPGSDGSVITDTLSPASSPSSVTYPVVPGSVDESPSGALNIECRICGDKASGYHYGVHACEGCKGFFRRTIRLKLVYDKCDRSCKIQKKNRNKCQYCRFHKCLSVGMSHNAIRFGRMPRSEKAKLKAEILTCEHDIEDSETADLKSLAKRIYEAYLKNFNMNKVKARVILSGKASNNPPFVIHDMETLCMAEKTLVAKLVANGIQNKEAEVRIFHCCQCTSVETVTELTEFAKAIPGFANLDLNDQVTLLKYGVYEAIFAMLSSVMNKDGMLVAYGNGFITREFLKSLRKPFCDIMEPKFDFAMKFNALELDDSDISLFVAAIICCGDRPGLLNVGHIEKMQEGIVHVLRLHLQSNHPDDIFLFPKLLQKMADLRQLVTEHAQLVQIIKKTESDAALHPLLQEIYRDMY
Nature of the experiment: co-IP; exogenous co-IP from HEK293T cells transfected with HA-tagged USP25 and Myc-tagged PPARα; IP lysis buffer, antibody overnight at 4 °C, Protein A/G PLUS-Agarose, Western blot. In general terms: In western blotting, separated proteins are transferred to a membrane and probed.

Experiment [2] addresses T2, Peroxisome proliferator-activated receptor alpha (endogenous, mouse liver) (mouse (endogenous in mouse liver)) (UniProt P23204).
T2 sequence: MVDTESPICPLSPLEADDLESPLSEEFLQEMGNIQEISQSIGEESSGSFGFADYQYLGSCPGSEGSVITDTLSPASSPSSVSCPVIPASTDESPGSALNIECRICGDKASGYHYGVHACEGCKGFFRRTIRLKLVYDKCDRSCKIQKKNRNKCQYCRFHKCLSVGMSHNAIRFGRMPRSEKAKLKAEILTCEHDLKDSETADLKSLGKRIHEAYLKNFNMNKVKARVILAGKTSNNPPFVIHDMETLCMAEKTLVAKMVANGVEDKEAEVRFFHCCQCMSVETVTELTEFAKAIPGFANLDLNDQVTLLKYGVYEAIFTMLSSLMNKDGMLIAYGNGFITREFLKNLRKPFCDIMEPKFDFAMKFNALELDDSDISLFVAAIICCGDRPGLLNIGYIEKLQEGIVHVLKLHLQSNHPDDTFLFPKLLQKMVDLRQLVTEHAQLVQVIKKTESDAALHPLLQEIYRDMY
Nature of the experiment: co-IP; endogenous co-IP from livers of HFD-fed mice; IP lysis buffer, antibody overnight at 4 °C, Protein A/G PLUS-Agarose, Western blot.

With “HA-tagged USP25 (from UniProt Q9UHP3 1-1055) (enzyme)”, the binding entry in experiment [1] is on record as “binds”.

B1: Ubiquitin-specific peptidase 25 (endogenous, mouse liver) (enzyme, UniProt P57080 1-1055)
chain: MTVEQNVLQQSAAQKHQQTFLNQLREITGINDAQILQQALKDSNGNLELAVAFLTAKNAKTPPQEETGYYQTALPGNDRYISVGSQADANVIDLTGDDKDDLQRAIALSLAESNRAFRETGITDEEQAISRVLEASIAENKACLKRTPIEVWRDSRNPYDRKRQEKAPVGLKNVGNTCWFSAVIQSLFNLLEFRRLVLNYKPPSNAQDLPRNQKEHRNLPFMRELRYLFALLVGTKRKYVDPSRAVEILKDAFKSNDSQQQDVSEFTHKLLDWLEDAFQMKAEEETDEEKPKNPMVELFYGRFLAMGVLEGKKFENTEMFGQYPLQVNGFKDLHECLEAAMIEGEIESLHSDNSGKSGQEHWFTELPPVLTFELSRFEFNQALGRPEKIHNKLEFPQVLYLDRYMHRNREITRIKREEIKRLKDYLTVLQQRLERYLSYGSGPKRFPLVDVLQYALEFASSKPVCTSPVDDIDASSSASGPLPSQSLPSTTEQQGPCASDLPGSSSPASGAALPLRSVIHKPFTQSRIPPDLPMHPAPRHITEEELCVLESCLHRWRTEIENDTRDLQESISRIHRTIELMYSDKSMIQVPYRLHAVLVHEGQANAGHYWAYIFDHRESRWMKYNDIAVTKSSWEELVRDSFGGYRNASAYCLMYIDDKAQFLIQEEFNKETGQALVGMETLPPDLRDFVEEDNQRFEKELEEWDTQLAQRSLQEKLLAAPKLREAEASATTAQAGGADYLEQPSRSDLSKHWKEETLRVIAKASHDLEDKGPETVLQSAIKLEYSRLVKLAQEDTPPETDYRLHHVLVYFIQNQAPKKIIEKTLLEQFGDRNLSFDERCHNIMKVAQAKLEMIKPEEVNLEEYEEWHADYKKFRETTMYLITGLENFQRESYIDSLLFLLCAYQNNKELLSKGPYRGHDGELISHYRRECLLKLNEQAAELFESGEDGDVNNGLIIMNEFIVPFLPLLLVDDMEEKDILAVEDMRNRWCSYLGQEMEANLQEKLTDFLPKLLDCSTEIKGFHEPPKLPSYSAHELCERFARIMLSLSRTPADGR
On to B1, for which the binding result in experiment [2] was “binds”.
